Record: PubChem BioAssay AID504784 (Drosophila RNAi Screening Center, 2011)

Screen: 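Genome-wide knock-down for genes giving too much or too little stored lipid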 (primary screen)
Cell system: Drosophila Kc167 embryonic cells
Knock-down reagent: long dsRNA against Drosophila genes, about 250 ng dsRNA per well
Duration: 4 days
Challenge: cells fed 400 µM oleic acid bound to BSA
Detection: 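Microscope images give a droplet-to-nucleus area ratio, taken as log and converted to a screen-wide B-score; higher values mean greater lipid storage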
Scale: droplet/nuclear area B-score: higher = more stored lipid (overstorage)
In all, the deposit lists about 17,000 reagents; this is a random part of those with a known target gene and a result. 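Each column is one replicate's B-score; the combined score over replicates was not deposited, so single values may mislead.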 A plus sign joins genes that one reagent is predicted to hit.

| predicted target | dsRNA | droplet/nuclear area B-score, replicate 1 | droplet/nuclear area B-score, replicate 2 | droplet/nuclear area B-score, replicate 3 |
| --- | --- | --- | --- | --- |
| CG30031 + deltaTry + gammaTry | DRSC07622 | -1.26 | 0.172 | – |
| if (GeneID 32661) | DRSC20341 | -0.035 | 0.993 | – |
| Gpb5 (GeneID 3355097) | DRSC21241 | -0.322 | -0.451 | – |
| kra (GeneID 40680) | DRSC12320 | -0.111 | -0.482 | – |
| CG13046 (GeneID 39791) | DRSC09927 | -0.917 | -0.473 | – |
| Atx-1 (GeneID 31624) | DRSC18365 | -1.33 | 1.11 | – |
| Polr3G (GeneID 39941) | DRSC21511 | 1.59 | -0.765 | – |
| CR14033 (GeneID 10178827) | DRSC02358 | 1.07 | -0.119 | – |
| Shrm (GeneID 36592) | DRSC06437 | 2.18 | 2.35 | – |
| Shrm (GeneID 36592) | DRSC06438 | 2.96 | -0.874 | – |
| Shrm (GeneID 36592) | DRSC07221 | -1.1 | -0.391 | – |
| Shrm (GeneID 36592) | DRSC23067 | -0.0385 | -1.19 | – |
| CG3704 (GeneID 31043) | DRSC18174 | 0.519 | -1.92 | – |
| CG3704 (GeneID 31043) | DRSC18645 | 0.174 | 0.654 | – |
| loh (GeneID 34435) | DRSC01122 | -0.674 | 0.192 | – |
| loh (GeneID 34435) | DRSC02943 | -0.067 | -0.91 | – |
| Epg5 (GeneID 42256) | DRSC14778 | -0.05 | 0.976 | – |
| CG18558 (GeneID 33482) | DRSC00525 | -0.347 | -1.02 | – |
| CG18558 (GeneID 33482) | DRSC21593 | -0.391 | -0.345 | – |
| ND-20 (GeneID 32565) | DRSC20164 | 4.16 | 1.06 | 1.63 |
| alpha-Man-IIa (GeneID 41126) | DRSC15393 | 0.813 | 0.0407 | – |

In a second layout: results already given.
predicted target	dsRNA	droplet/nuclear area B-score, replicate 1	droplet/nuclear area B-score, replicate 2	droplet/nuclear area B-score, replicate 3
Shrm (GeneID 36592)	DRSC23067	-0.0385	-1.19	
CG3704 (GeneID 31043)	DRSC18174	0.519	-1.92	
CG3704 (GeneID 31043)	DRSC18645	0.174	0.654	
loh (GeneID 34435)	DRSC01122	-0.674	0.192	
loh (GeneID 34435)	DRSC02943	-0.067	-0.91	
Epg5 (GeneID 42256)	DRSC14778	-0.05	0.976	

More results:
| predicted target | dsRNA | droplet/nuclear area B-score, replicate 1 | droplet/nuclear area B-score, replicate 2 | droplet/nuclear area B-score, replicate 3 |
| --- | --- | --- | --- | --- |
| CG11076 (GeneID 43830) | DRSC17197 | 0.548 | -0.408 | – |
| CG13837 (GeneID 42720) | DRSC14687 | -0.595 | -0.111 | – |
| ImpE2 (GeneID 38432) | DRSC08665 | -0.353 | -0.821 | – |
| Tace (GeneID 43558) | DRSC16340 | 0.368 | -0.681 | – |
| CG42699 (GeneID 31507) | DRSC18076 | -0.645 | 1.46 | -0.986 |
| CG42699 (GeneID 31507) | DRSC18341 | -1.09 | -0.451 | – |
| CG9547 (GeneID 33911) | DRSC03260 | 0.981 | 0.278 | – |
| sgg (GeneID 31248) | DRSC17228 | -0.0752 | 2.28 | – |
| sgg (GeneID 31248) | DRSC17722 | – | 0.57 | – |
| sgg (GeneID 31248) | DRSC18832 | 0.382 | -0.101 | – |
| Sec15 (GeneID 42499) | DRSC16179 | 1.36 | -3.41 | – |
| Ugalt (GeneID 31255) | DRSC18467 | -0.463 | -0.114 | – |
| dnd (GeneID 42580) | DRSC16064 | -1.13 | -0.587 | – |
| CG11906 (GeneID 37209) | DRSC06096 | 0.51 | -3.84 | – |
| Jon65Aiii (GeneID 38683) | DRSC10649 | 0.4 | -0.347 | – |
| Ugt49C1 (GeneID 37421) | DRSC04252 | 0.0172 | 0.641 | – |
| CG9514 (GeneID 32418) | DRSC20190 | -1.07 | -1.07 | – |
| CG9514 (GeneID 32418) | DRSC20191 | 0.982 | 0.0133 | – |
| Antp (GeneID 40835) | DRSC12490 | -0.00648 | – | – |
| Antp (GeneID 40835) | DRSC23104 | 1.02 | 0.159 | – |
| Prp3 (GeneID 40172) | DRSC10912 | 0.225 | -1.92 | – |
| Or85a (GeneID 40991) | DRSC16764 | 0.48 | -0.0419 | – |
| kairos (GeneID 32815) | DRSC19972 | 0.169 | 0.457 | – |
| kairos (GeneID 32815) | DRSC23286 | 1.8 | 0.0859 | – |
| CG1785 (GeneID 31810) | DRSC18139 | 1.28 | -0.0105 | 1.16 |
| ZnT49B (GeneID 36393) | DRSC07225 | -0.901 | -1.64 | – |
| Tango14 (GeneID 33298) | DRSC00667 | 1.67 | -0.24 | – |
| CCHa2 (GeneID 41648) | DRSC14835 | 1.44 | 2.93 | 1.98 |
| Abi (GeneID 41718) | DRSC14099 | 8.93 | 0.041 | – |
| CG30048 (GeneID 246415) | DRSC22205 | -0.125 | 0.48 | – |
| RhoGEF3 (GeneID 38050) | DRSC08351 | 1.2 | 0.0576 | – |
| RhoGEF3 (GeneID 38050) | DRSC08352 | -0.868 | -1.43 | – |
| cbc (GeneID 36494) | DRSC06957 | 0.62 | 0.0215 | – |
| Andorra (GeneID 32798) | DRSC19475 | 0.668 | 1.5 | – |
| CG42331 (GeneID 42948) | DRSC14633 | 0.0552 | 0.112 | – |
| CG42331 (GeneID 42948) | DRSC16126 | -0.0431 | 3.2 | – |
